PubChem BioAssay AID504784 – Drosophila RNAi Screening Center | 2011

Assay: 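Genome-wide knock-down for genes giving too much or too little stored lipid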 (primary screen)
System: Drosophila Kc167 embryonic cells
Reagents: long dsRNA against Drosophila genes, about 250 ng dsRNA per well
Duration: 4 days
Conditions: cells fed 400 µM oleic acid bound to BSA
Detection: 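Microscope images give a droplet-to-nucleus area ratio, taken as log and converted to a screen-wide B-score; higher values mean greater lipid storage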
Scale: droplet/nuclear area B-score: higher = more stored lipid (overstorage)
The deposit covers about 17,000 reagents; shown is an unselected part of those that have a named target and a result. 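Each column is one replicate's B-score; the combined score over replicates was not deposited, so single values may mislead.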 The numbers tell different reagents against one gene apart. Further read-outs or replicates are left out here. No sequences are given here.

Bro
- droplet/nuclear area B-score, replicate 1: -0.127

CG5274
- droplet/nuclear area B-score, replicate 1: -1.31

Pex19 (Peroxin 19)
- droplet/nuclear area B-score, replicate 1: -0.391

CG17105
- droplet/nuclear area B-score, replicate 1: -0.854

CG9265 #1
- droplet/nuclear area B-score, replicate 1: -0.324

CG9265 #2
- droplet/nuclear area B-score, replicate 1: -1.29

ND-B17 (NADH dehydrogenase (ubiquinone) B17 subunit)
- droplet/nuclear area B-score, replicate 1: 0.788

BBS5 (Bardet-Biedl syndrome 5)
- droplet/nuclear area B-score, replicate 1: 0.593

CG3610
- droplet/nuclear area B-score, replicate 1: 0.522

CG3505
- droplet/nuclear area B-score, replicate 1: 2.96

CG14340
- droplet/nuclear area B-score, replicate 1: 0.341

CG14406
- droplet/nuclear area B-score, replicate 1: 1.58

Gyc32E (Guanylyl cyclase at 32E)
- droplet/nuclear area B-score, replicate 1: -0.312

CG4291
- droplet/nuclear area B-score, replicate 1: -0.763

Continued (2 carried over from the part before).
Gyc32E (Guanylyl cyclase at 32E)
- droplet/nuclear area B-score, replicate 1: -0.312

CG4291
- droplet/nuclear area B-score, replicate 1: -0.763

LS2 (Large Subunit 2)
- droplet/nuclear area B-score, replicate 1: 1.9

Alp11 (Alkaline phosphatase 11)
- droplet/nuclear area B-score, replicate 1: -0.375

CG7320
- droplet/nuclear area B-score, replicate 1: -0.754

CTCF
- droplet/nuclear area B-score, replicate 1: -0.665

TfIIA-S (Transcription-factor-IIA-S)
- droplet/nuclear area B-score, replicate 1: 1.08

Taf2 (TBP-associated factor 2)
- droplet/nuclear area B-score, replicate 1: 0.301

CG13465
- droplet/nuclear area B-score, replicate 1: -0.5

CG7518
- droplet/nuclear area B-score, replicate 1: -0.0296

CG31845 (retired record) #1
- droplet/nuclear area B-score, replicate 1: -0.0269

CG31845 (retired record) #2
- droplet/nuclear area B-score, replicate 1: -0.756

Atf3 (Activating transcription factor 3) #1
- droplet/nuclear area B-score, replicate 1: 2.9

Atf3 (Activating transcription factor 3) #2
- droplet/nuclear area B-score, replicate 1: 0.0672

Mdh2 (retired record)
- droplet/nuclear area B-score, replicate 1: -0.841

alpha-Man-Ib (alpha-Mannosidase class I b)
- droplet/nuclear area B-score, replicate 1: 0.0248

KrT95D (Krueppel target at 95D)
- droplet/nuclear area B-score, replicate 1: 0.0176

Tif-IA #1
- droplet/nuclear area B-score, replicate 1: -0.479

Tif-IA #2
- droplet/nuclear area B-score, replicate 1: -0.077

CG10543 #1
- droplet/nuclear area B-score, replicate 1: -0.984

CG10543 #2
- droplet/nuclear area B-score, replicate 1: -0.841

TotE (Turandot E)
- droplet/nuclear area B-score, replicate 1: -0.662

Cpr78Cb (Cuticular protein 78Cb)
- droplet/nuclear area B-score, replicate 1: -0.624

hzg (herzog)
- droplet/nuclear area B-score, replicate 1: -3.4

phr (photorepair)
- droplet/nuclear area B-score, replicate 1: -1.49

CG31140 #1
- droplet/nuclear area B-score, replicate 1: -1.73

CG31140 #2
- droplet/nuclear area B-score, replicate 1: 0.664

Trf5 (TBP-related factor 5)
- droplet/nuclear area B-score, replicate 1: -2.06
